According to PMC11163727:
Results are given in words; binding and its absence hold for the method and conditions named. In cells and extracts the contact can be indirect. Here binding means that the protein was enriched with, or labelled near, the bait; the list need not be complete.

Protein sequences, listed by entry. Tags and fused reporters are not part of them. Residues count along the entry.
UniProt P08174, residues 35-353: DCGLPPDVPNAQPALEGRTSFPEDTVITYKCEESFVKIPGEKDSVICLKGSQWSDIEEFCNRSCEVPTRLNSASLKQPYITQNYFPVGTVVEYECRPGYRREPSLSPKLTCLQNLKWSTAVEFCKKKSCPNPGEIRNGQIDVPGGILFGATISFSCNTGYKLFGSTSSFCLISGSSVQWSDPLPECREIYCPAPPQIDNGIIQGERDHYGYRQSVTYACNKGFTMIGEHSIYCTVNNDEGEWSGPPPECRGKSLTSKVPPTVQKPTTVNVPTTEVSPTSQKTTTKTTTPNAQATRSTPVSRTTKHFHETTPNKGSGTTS
UniProt Q9UDY2: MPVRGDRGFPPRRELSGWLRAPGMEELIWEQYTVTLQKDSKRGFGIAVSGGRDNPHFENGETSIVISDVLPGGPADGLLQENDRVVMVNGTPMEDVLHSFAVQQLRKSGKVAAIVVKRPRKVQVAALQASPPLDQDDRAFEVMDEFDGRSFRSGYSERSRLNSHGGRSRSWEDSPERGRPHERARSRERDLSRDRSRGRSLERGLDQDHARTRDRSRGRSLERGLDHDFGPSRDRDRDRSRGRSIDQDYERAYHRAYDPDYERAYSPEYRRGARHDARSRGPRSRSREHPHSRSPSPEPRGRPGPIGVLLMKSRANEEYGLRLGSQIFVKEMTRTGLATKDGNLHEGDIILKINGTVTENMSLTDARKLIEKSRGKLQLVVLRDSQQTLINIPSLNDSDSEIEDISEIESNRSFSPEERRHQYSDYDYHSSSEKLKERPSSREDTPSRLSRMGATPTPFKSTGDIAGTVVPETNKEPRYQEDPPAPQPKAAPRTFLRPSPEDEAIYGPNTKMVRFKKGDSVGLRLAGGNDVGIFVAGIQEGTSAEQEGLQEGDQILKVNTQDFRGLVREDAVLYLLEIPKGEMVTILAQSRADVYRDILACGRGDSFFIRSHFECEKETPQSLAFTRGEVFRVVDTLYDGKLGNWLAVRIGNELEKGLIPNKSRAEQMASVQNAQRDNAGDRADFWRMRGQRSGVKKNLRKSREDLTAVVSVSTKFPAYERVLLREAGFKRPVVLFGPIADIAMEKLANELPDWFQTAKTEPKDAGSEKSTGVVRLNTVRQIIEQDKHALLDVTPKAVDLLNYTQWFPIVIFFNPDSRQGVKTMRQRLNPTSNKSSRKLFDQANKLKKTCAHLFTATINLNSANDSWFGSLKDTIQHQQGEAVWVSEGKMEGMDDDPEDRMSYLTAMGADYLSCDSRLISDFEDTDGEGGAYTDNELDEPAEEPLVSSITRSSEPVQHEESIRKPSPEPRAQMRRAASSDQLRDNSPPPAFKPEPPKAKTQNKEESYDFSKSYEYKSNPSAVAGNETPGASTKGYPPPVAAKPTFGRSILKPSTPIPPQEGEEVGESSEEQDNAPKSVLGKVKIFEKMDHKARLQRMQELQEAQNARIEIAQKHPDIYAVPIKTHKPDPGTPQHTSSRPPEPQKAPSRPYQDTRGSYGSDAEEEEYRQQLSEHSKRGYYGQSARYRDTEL

Molecular target: CD55 (complement decay-accelerating factor), endogenous in CP70 cells (human (endogenous in CP70)) (UniProt P08174)
Experiment: affinity purification with mass spectrometry; CD55 immunoprecipitated (3 ug CD55 antibody, overnight 4 C, protein A/G agarose) from the nuclear fraction of CP70 cells (NE-PER kit); SDS-PAGE, in-gel digestion, LC-MS/MS

## Tight Junction Protein 2 (TJP2) (from UniProt Q9UDY2 1-1190)
  binding: binds
